System: RAG01 (derived from fibroblasts of a patient diagnosed with SSMD) fibroblasts
Assay: CellTiter-Glo concentration response in RAG01 fibroblasts
Type: cell-based
Conditions: Homo sapiens, Fibroblast, 72 h
Method: Compounds described herein were tested in three cell lines, RAG01 (derived from fibroblasts of a patient diagnosed with SSMD) fibroblasts, RAG02 (derived from fibroblasts of the patient's parent), and GM09503 (from supplier Corriell) (derived from a healthy donor) to each generate 10-point concentration response curves (CRC). The three cell lines were each thawed seven (7) days prior to seeding. The RAG01 cells were thawed in a medium supplemented with a-tocopherol. Cells were passaged four (4) days prior to the seeding. The α-tocopherol was removed from the RAG01 cells. Cells were then seeded at 900 cells per well in 384-well plates. Two replicates were prepared for two independent (replicate) experiments. All plates were then incubated with compounds described herein for 72 hours, prior to CellTiter-Glo assay. […] The assay was run using the CellTiter-Glo (Promega) following manufacturer's guidelines and luminescent spectrophotometric reading on PHERAstar FSX (BMG Labtech). A 0.1% dimethylsulfoxide (DMSO) was used as a blank (vehicle control); and a 1 μM Ferrostatin-1 was used as a control (CTRL).
The raw data was analyzed using Activity Base® software. The compounds were evaluated by efficacy (percentage effect) normalized to the vehicle control. The percentage effect (PE) was determined from the signal increase in comparison to the vehicle control according to the formula below: […]

Cc1cc2c(s1)Nc1ccccc1N=C2N1CCN(C)CC1 [compound 33, olanzapine]
EC50: 1.98 µM

From patent US20230414628A1, “METHODS FOR TREATING DISEASES MEDIATED BY GLUTATHIONE PEROXIDASE 4” (priority 2022, published 2023)
